Results published in paper PMC8391104, “Molecular mechanism of Mad1 kinetochore targeting by phosphorylated Bub1” (EMBO Reports, 2021).
Substitutions are numbered along the chain they refer to. Results are given in words; binding and its absence hold for the method and conditions named. Some entries that bind do so weakly or less than the wild type.

How the values were obtained:
[1] = biological target: T1, Mad1^CTD F629A (human) (UniProt Q9Y6D9); test: condition: Mad1 30-100 µM in the cell, peptide 0.3-1.5 mM titrated; ITC; Bub1^CD1 peptide (0.3-1.5 mM) titrated into Mad1 (30-100 µM) in the cell; 20°C; 20 mM HEPES pH 7.5, 100 mM NaCl, 1 mM TCEP; single-site model; stoichiometry counted on dimeric Mad1^CTD; both purified
T1 sequence: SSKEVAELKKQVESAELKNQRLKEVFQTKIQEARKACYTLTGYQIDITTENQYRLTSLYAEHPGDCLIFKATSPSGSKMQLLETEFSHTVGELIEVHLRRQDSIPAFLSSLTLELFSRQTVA

[2] = biological target: T2, Mad1^CTD L618A (human) (UniProt Q9Y6D9); test: as above
T2 sequence: T1 sequence with L22A, A33F

[3] = biological target: Mad1 (485-718) in complex with C-Mad2 (Mad1:C-Mad2 tetramer) (UniProt Q9Y6D9); test: ITC; Bub1^CD1 peptide (0.3-1.5 mM) titrated into Mad1 (30-100 µM) in the cell; 20°C; 20 mM HEPES pH 7.5, 100 mM NaCl, 1 mM TCEP; single-site model; stoichiometry counted on dimeric Mad1^CTD; both purified
[4] = biological target: Mad1 (420-718) in complex with C-Mad2 (Mad1:C-Mad2 tetramer) (UniProt Q9Y6D9); test: as above

**Q.** With KVQPSPTVHTKEALGFIMNMFQAPTS (phosphoserine at 459, phosphothreonine at 461) [doubly phosphorylated Bub1^CD1 peptide (pSer459-pThr461)] as the binder, how does the binding [1] read?
**A.** no binding

**Q.** And the binding [2]?
**A.** no binding

**Q.** And the binding [3]?
**A.** binds

**Q.** And the binding [4]?
**A.** binds
